# Structures can show the parent of a compound that is named as a salt. Some of the results follow. Repeats in this data set agree poorly, so a single value says little.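 Human fetal ventral-midbrain neural progenitor line ReNCell VM, differentiated without mitogens. Images stained for doublecortin (early neurons) or tyrosine hydroxylase (dopaminergic neurons) were scored by blinded raters against untreated wells (0 = no change). Repeats and both raters were averaged, and compounds averaging 2 or higher were picked as hits for retesting.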
# Tests used:
# ReNCell VM [1] = assay: neuronal differentiation score (DCX+ cell fraction vs untreated, manual image score) (score (-3 to 3)); higher = more neuronal differentiation; settings: 2 uM, 2 weeks
# ReNCell VM [2] = assay: dopaminergic neuron differentiation score (TH+ cell fraction vs untreated, manual image score) (score (0 to 3)); higher = more TH+ dopaminergic neuron differentiation; settings: 2 uM, 4 weeks, BDNF 10 ng/ml + GDNF 10 ng/ml
compound,measurement,setting,value
CC(N)(Cc1ccc(O)c(O)c1)C(=O)O [L-(-)- à-Methyldopa],neuronal differentiation score,ReNCell VM [1]; library: Tocriscreen,inactive: 0
same,dopaminergic neuron differentiation score,ReNCell VM [2]; library: Tocriscreen,inactive: 0
Cc1ccc(Cl)c(Nc2ccccc2C(=O)O)c1Cl,neuronal differentiation score,ReNCell VM [1]; library: Spectrum,inactive: -1
same,dopaminergic neuron differentiation score,ReNCell VM [2]; library: Spectrum,inactive: 0
CC(=O)OCC(CCn1cnc2cnc(N)nc21)COC(C)=O,neuronal differentiation score,ReNCell VM [1]; library: Spectrum,inactive: -1
same,dopaminergic neuron differentiation score,ReNCell VM [2]; library: Spectrum,inactive: 1
Nc1ccc(S(=O)(=O)Nc2ccc(Cl)nn2)cc1 [Sulfachloropyridazine],neuronal differentiation score,ReNCell VM [1]; library: Prestwick,inactive: 0
same,dopaminergic neuron differentiation score,ReNCell VM [2]; library: Prestwick,inactive: 0
Nc1cc(C(Cl)=C(Cl)Cl)c(S(N)(=O)=O)cc1S(N)(=O)=O [Clorsulon],neuronal differentiation score,ReNCell VM [1]; library: Prestwick,inactive: 0
same,dopaminergic neuron differentiation score,ReNCell VM [2]; library: Prestwick,inactive: 0
CCn1cc(C(=O)O)c(=O)c2cc(F)c(N3CCNCC3)nc21,neuronal differentiation score,ReNCell VM [1]; library: Spectrum,inactive: 0
same,dopaminergic neuron differentiation score,ReNCell VM [2]; library: Spectrum,inactive: 0
CC(C)(C)NC[C@H](O)c1ccc(O)c(CO)c1 [Levalbuterol hydrochloride],neuronal differentiation score,ReNCell VM [1]; library: Prestwick,inactive: 0
same,dopaminergic neuron differentiation score,ReNCell VM [2]; library: Prestwick,inactive: 0
CCCN(CCC)S(=O)(=O)c1ccc(C(=O)O)cc1,neuronal differentiation score,ReNCell VM [1]; library: Spectrum,inactive: 0
same,dopaminergic neuron differentiation score,ReNCell VM [2]; library: Spectrum,inactive: 0
CC(=O)Oc1ccccc1C(=O)Nc1ncc([N+](=O)[O-])s1,neuronal differentiation score,ReNCell VM [1]; library: Spectrum,inactive: 0
same,dopaminergic neuron differentiation score,ReNCell VM [2]; library: Spectrum,inactive: 0
COc1cc(C(O)CO)ccc1OS(=O)(=O)O (configuration not stated) [MHPG sulfate potassium],neuronal differentiation score,ReNCell VM [1]; library: LOPAC,inactive: 0
same,dopaminergic neuron differentiation score,ReNCell VM [2]; library: LOPAC,inactive: 0
COc1cccc(/C=N/N=C/c2cccc(OC)c2)c1,neuronal differentiation score,ReNCell VM [1]; library: Tocriscreen,inactive: 0
same,dopaminergic neuron differentiation score,ReNCell VM [2]; library: Tocriscreen,inactive: 0
"COC(=O)C[C@H]1C(C)(C)C2(O)OC34CC2C(=O)[C@]1(C)C3CC[C@]1(C)C4=CC(=O)O[C@H]1c1ccoc1 (stereo partly drawn) [8beta-HYDROXYCARAPIN, 3,8-HEMIACETAL]",neuronal differentiation score,ReNCell VM [1]; library: Spectrum,inactive: 0
same,dopaminergic neuron differentiation score,ReNCell VM [2]; library: Spectrum,active: 3
OC[C@H]1O[C@H](O[C@H]2[C@H](O)[C@@H](O)C(O)O[C@@H]2CO)[C@H](O)[C@@H](O)[C@@H]1O (some centres not stated),neuronal differentiation score,ReNCell VM [1]; library: Spectrum,inactive: 0
same,dopaminergic neuron differentiation score,ReNCell VM [2]; library: Spectrum,inactive: 0
"CCCn1c(=O)c2[nH]c(-c3ccccc3)nc2n(CCC)c1=O [1,3-Dipropyl-8-phenylxanthine]",neuronal differentiation score,ReNCell VM [1]; library: Tocriscreen,inactive: 0
same,dopaminergic neuron differentiation score,ReNCell VM [2]; library: Tocriscreen,inactive: 0
Nc1ncnc2c1nc(Sc1ccc(Cl)cc1)n2C1OC2COP(=O)(O)O[C@@H]2[C@@H]1O (some centres not stated) [8-(4-Chlorophenylthio)-cAMP sodium],neuronal differentiation score,ReNCell VM [1]; library: LOPAC,inactive: 0
same,dopaminergic neuron differentiation score,ReNCell VM [2]; library: LOPAC,inactive: 0
COc1ccccc1N1CCN(CCN(C(=O)c2ccc(F)cc2)c2ccccn2)CC1 [p-MPPF dihydrochloride],neuronal differentiation score,ReNCell VM [1]; library: LOPAC,inactive: 0
same,dopaminergic neuron differentiation score,ReNCell VM [2]; library: LOPAC,inactive: 0
CC(Oc1ccccc1)C(=O)N[C@@H]1C(=O)N2[C@@H]1SC(C)(C)[C@@H]2C(=O)O (some centres not stated) [Phenethicillin potassium salt],neuronal differentiation score,ReNCell VM [1]; library: Prestwick,inactive: 0
same,dopaminergic neuron differentiation score,ReNCell VM [2]; library: Prestwick,inactive: 0
O=S(=O)(O)NC1CCCCC1,neuronal differentiation score,ReNCell VM [1]; library: Spectrum,inactive: 0
same,dopaminergic neuron differentiation score,ReNCell VM [2]; library: Spectrum,inactive: 0
COc1ccc(-c2cc(=O)c3c(O)cc(O)cc3o2)cc1 [Acacetin],neuronal differentiation score,ReNCell VM [1]; library: Phytochemical,inactive: 0
same,dopaminergic neuron differentiation score,ReNCell VM [2]; library: Phytochemical,inactive: 0
Cc1ccccc1OCC(O)CO (configuration not stated),neuronal differentiation score,ReNCell VM [1]; library: Spectrum,inactive: 0
same,dopaminergic neuron differentiation score,ReNCell VM [2]; library: Spectrum,inactive: 0
Cc1cc(NS(=O)(=O)c2ccc(N)cc2)no1 [Sulfamethoxazole],neuronal differentiation score,ReNCell VM [1]; library: Prestwick,inactive: 0
same,dopaminergic neuron differentiation score,ReNCell VM [2]; library: Prestwick,inactive: 0
CNC[C@H](O)c1cccc(O)c1 [Phenylephrine hydrochloride],neuronal differentiation score,ReNCell VM [1]; library: LOPAC,inactive: 0
same,dopaminergic neuron differentiation score,ReNCell VM [2]; library: LOPAC,inactive: 0
O=C1c2ccc(O)c(O)c2C(=O)c2c(O)ccc(O)c21,neuronal differentiation score,ReNCell VM [1]; library: Spectrum,inactive: 1
same,dopaminergic neuron differentiation score,ReNCell VM [2]; library: Spectrum,inactive: 0
CC(=O)O[C@]1(C)CC[C@@]23C[C@H]1C(C)(C)[C@@H]2CC[C@H]3C,neuronal differentiation score,ReNCell VM [1]; library: Spectrum,inactive: 0
same,dopaminergic neuron differentiation score,ReNCell VM [2]; library: Spectrum,inactive: 0
COc1ccc2cc([C@H](C)C(=O)O)ccc2c1 [naproxen],neuronal differentiation score,ReNCell VM [1]; library: Natural,inactive: 0
same,dopaminergic neuron differentiation score,ReNCell VM [2]; library: Natural,inactive: 0
COc1ccc2c(c1)N(C[C@H](C)CN(C)C)c1ccccc1S2 [Methotrimeprazine maleat salt],neuronal differentiation score,ReNCell VM [1]; library: Prestwick,inactive: 0
same,dopaminergic neuron differentiation score,ReNCell VM [2]; library: Prestwick,inactive: 0
CCOC(=O)/C=C(C)/C=C/C=C(C)/C=C/c1c(C)cc(OC)c(C)c1C [Etretinate],neuronal differentiation score,ReNCell VM [1]; library: Prestwick,inactive: 0
same,dopaminergic neuron differentiation score,ReNCell VM [2]; library: Prestwick,inactive: 0
CN[C@H](CC(C)C)C(=O)N[C@H]1C(=O)N[C@@H](CC(N)=O)C(=O)N[C@H]2C(=O)N[C@H]3C(=O)N[C@H](C(=O)N[C@H](C(=O)O)c4cc(O)cc(O)c4-c4cc3ccc4O)[C@H](O)c3ccc(c(Cl)c3)Oc3cc2cc(c3O[C@@H]2O[C@H](CO)[C@@H](O)[C@H](O)[C@H]2O[C@H]2C[C@](C)(N)[C@H](O)[C@H](C)O2)Oc2ccc(cc2Cl)[C@H]1O [Vancomycin hydrochloride],neuronal differentiation score,ReNCell VM [1]; library: Prestwick,inactive: 0
same,dopaminergic neuron differentiation score,ReNCell VM [2]; library: Prestwick,inactive: 1
C[C@@H]1C[C@H]2[C@@H]3C[C@H](F)C4=CC(=O)C=C[C@]4(C)[C@@]3(F)[C@@H](O)C[C@]2(C)[C@@]1(O)C(=O)CO,neuronal differentiation score,ReNCell VM [1]; library: Spectrum,inactive: 0
same,dopaminergic neuron differentiation score,ReNCell VM [2]; library: Spectrum,inactive: 0
Nc1ccn([C@@H]2O[C@H](CO)[C@@H](O)[C@@H]2O)c(=O)n1 [Cytosine-1-beta-D-arabinofuranoside hydrochloride],neuronal differentiation score,ReNCell VM [1]; library: LOPAC,inactive: 0
same,dopaminergic neuron differentiation score,ReNCell VM [2]; library: LOPAC,inactive: 0
CCN(CC)CCOC(=O)C(Cc1cccc2ccccc12)CC1CCCO1 (configuration not stated) [Nafronyl oxalate],neuronal differentiation score,ReNCell VM [1]; library: Prestwick,inactive: 0
same,dopaminergic neuron differentiation score,ReNCell VM [2]; library: Prestwick,inactive: 0

# Two records picked at random from those above:
compound,measurement,setting,value
COc1cc(C(O)CO)ccc1OS(=O)(=O)O (configuration not stated) [MHPG sulfate potassium],neuronal differentiation score,ReNCell VM [1]; library: LOPAC,inactive: 0
CNC[C@H](O)c1cccc(O)c1 [Phenylephrine hydrochloride],neuronal differentiation score,ReNCell VM [1]; library: LOPAC,inactive: 0

# Already shown: an excerpt of the list.
compound,measurement,setting,value
COc1ccc(-c2cc(=O)c3c(O)cc(O)cc3o2)cc1 [Acacetin],neuronal differentiation score,ReNCell VM [1]; library: Phytochemical,inactive: 0
same,dopaminergic neuron differentiation score,ReNCell VM [2]; library: Phytochemical,inactive: 0

# — the supplement of paper PMC4635364
